The values that follow come from PubChem BioAssay AID2685 (National Center for Advancing Translational Sciences (NCATS), 2010).

The other results are listed elsewhere or left out. These are further read-outs of the screen, such as a control signal, another cell line or another target. No call is given for them. Compounds called inactive in the main read-out are mostly missing here. Potencies come from curve fits of mixed quality, noted in brackets.

The nature of this assay: qHTS Assay for Lipid Storage Modulators in Drosophila S3 Cells.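 For cell number change: cells counted by Cell Tracker Red CMTPX staining in the red channel.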 The note with it: BODIPY lipid droplet fluorescence, 18-24 h; for cell number change: measured here: cell count max response, cells fed with added oleic acid. The method in brief: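 Drosophila S3 cells loaded with oleic acid (400 uM, as added) and compounds at several concentrations; lipid droplets imaged by 488-nm laser-scanning cytometry, 500–530 nm intensity and object ratio to cell channel. Percent activity normalized to 20 uM Triacsin C.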

Setting [1] is: measured here: lipid fluorescence (Fed channel) AC50, cells fed with added oleic acid.
The mark [2] stands for this setting: measured here: cell number channel AC50, cells fed with added oleic acid.

For `CCOC(=O)C1=C(C)NC(SCC(N)=O)=C(C#N)C1c1ccncc1` (configuration not stated), the cell number change is -29.6%.
Consider `O=C(COC(=O)CCc1ccccc1)Nc1cc([N+](=O)[O-])ccc1F`, for which the cell number change was -5.41%. In addition, the half-maximal activity concentration (AC50) under setting [1] was 29.1 µM [rising, single point].
In the case of `Cn1nc([N+](=O)[O-])nc1Sc1nnnn1-c1cccc(C(=O)O)c1`, the cell number change stood at 14.9%. Further, under setting [2], the AC50 was 0.82 µM [falling, single point]. Moreover, the concentration at half-maximal activity (AC50) under setting [1] is 0.731 µM [falling, partial curve, poor fit].
Take `CCCCOP(=O)(c1ccc(N(C)C)cc1)C(O)c1cc(OC)c(OC)c(OC)c1` (configuration not stated): the cell number change was -11.1%. In addition, the concentration at half-maximal activity (AC50) under setting [1] is 2.31 µM [falling, single point].
On to `O=C(NC(=S)Nc1cccc(Cl)c1Cl)C1CC1`, for which the cell number change was -27.8%.
Take `CCOC(=O)c1c(NC(=O)C2=C(C)NC(=S)NC2c2ccc(C)cc2)sc(C)c1C` (configuration not stated): the cell number change is -9.5%. Moreover, the AC50 under setting [1] is 29.1 µM [falling, single point].
Take `C(=N\NC1=Nc2cccc3cccc1c23)/c1ccccn1`: the cell number change was -37.6%. Besides, under setting [2], the AC50 was 4.61 µM [falling, partial curve].
In the case of `CCOC(=O)c1c(-c2ccccc2)csc1NC(=O)CSc1nncs1`, the cell number change stood at 0.666%. Also, the AC50 under setting [1] is 0.0651 µM [rising, full curve, poor fit].
As for `CCCCNC(=S)NNC(=O)c1c(C)nc2ccccn12`, the cell number change was 87.3%. Also, under setting [2], the AC50 is 6.51 µM [rising, full curve]. Besides, the half-maximal activity concentration (AC50) under setting [1] is 5.17 µM [rising, full curve].
`C[C@H](NC(=O)c1ccccc1)C(=O)N1CCN(c2ccccc2)CC1`: the AC50 under setting [2] is 6.51 µM [rising, single point].
Take `COc1ccc(OCC(=O)NC(=S)NNC(=O)COc2ccc(Br)cc2Cl)cc1`: the cell number change is -49.6%. Further, under setting [2], the AC50 is 0.82 µM [falling, full curve]. Besides, the AC50 under setting [1] was 0.92 µM [falling, full curve].
As to `O=C(CC1C(=O)OCN1C(=O)OCc1ccccc1)OCC(=O)c1ccccc1` (configuration not stated), the cell number change came to 0.337%.
`CCOC(=O)C1CCN(C(=O)Cc2cccs2)CC1`: the cell number change worked out at 4.18%.
Consider `CCOc1ccc(NC(=O)Nc2cc(C)ccc2OC)cc1`, for which the cell number change was -28.7%. For the same compound, the AC50 under setting [1] is 18.4 µM [falling, single point].
As to `Cc1nc(-c2cccc(S(=O)(=O)N3CC(C)CC(C)C3)c2)cs1` (configuration not stated), the cell number change is -18.3%. The AC50 under setting [1] is 0.184 µM [rising, partial curve, poor fit].
On to `Cc1nc(N2CCN(c3ccccc3)CC2)nc2c1C(=O)CC(c1ccccc1)C2` (configuration not stated), for which the cell number change is 4.14%. In addition, the AC50 under setting [1] was 5.17 µM [rising, single point].
On to `Cc1cccc(C)c1NC(=O)CN1C(=O)COc2ccccc21`, for which the cell number change is -1.47%.
For the compound `CCCCC(=O)NC1(C(F)(F)F)C(=O)N(CC(C)C)C2=C1C(=O)CC(C)(C)C2` (configuration not stated), the cell number change was 22.3%. Besides, the AC50 under setting [1] was 20.6 µM [rising, single point].
On to `O=C(NCC(c1ccco1)N1CCOCC1)c1ccc(F)cc1` (configuration not stated), for which the cell number change is -20.4%. The AC50 under setting [1] is 4.61 µM [falling, partial curve].
`Cc1cccc(C)c1OCCOC(=O)c1n[nH]c2ccccc12`: the cell number change is -50.1%. Further, under setting [2], the AC50 was 5.8 µM [falling, partial curve]. Moreover, the AC50 under setting [1] was 1.3 µM [falling, partial curve].
With `O=c1[nH]c(N2CCCCC2)nc2c1CCCC2`, the cell number change is -3.95%. Besides, under setting [2], the AC50 is 0.731 µM [falling, partial curve]. Also, the AC50 under setting [1] is 6.51 µM [falling, single point].
Take `O=C(Nc1cccc(S(=O)(=O)N2CCCC2)c1)c1ccc2c(c1)OCO2`: the cell number change amounted to 0.642%. The AC50 under setting [1] is 0.0731 µM [rising, full curve].
In the case of `O=C(Nc1ccccc1)c1ncoc1-c1ccc(Cl)cc1`, the cell number change amounted to 31%. In addition, under setting [2], the AC50 was 32.6 µM [rising, single point].
For `CSc1nc(-c2ccccc2)c2cc(Cl)ccc2n1`, the cell number change is -58.6%. Moreover, the AC50 under setting [2] was 0.58 µM [falling, full curve]. Moreover, under setting [1], the half-maximal activity concentration (AC50) was 0.651 µM [falling, full curve].
For `CCOc1cc(/C=C(/C#N)c2ccc(F)cc2)ccc1OCc1ccc(C(=O)O)o1`, the cell number change is -3.73%. For the same compound, the AC50 under setting [2] is 0.82 µM [rising, single point]. For the same compound, under setting [1], the AC50 is 29.1 µM [rising, single point].
Consider `Cc1cccc(CS(=O)(=O)c2ncc(Cl)c(C(=O)Nc3nnc(C(C)C)s3)n2)c1`, for which the cell number change was found to be 5.28%.
Take `O=C1C2CCCN2C(=O)N1CCCCN1CCN(c2ccccc2)CC1` (configuration not stated): the cell number change is -3.96%. In addition, the AC50 under setting [1] is 14.6 µM [falling, single point].
Turning to `COc1ccc(NS(=O)(=O)c2ccc3nc(COc4cccc5ccccc45)[nH]c3c2)cc1`, the cell number change is -5.21%. Further, the AC50 under setting [1] was 1.46 µM [rising, partial curve].
Take `N#Cc1c(N)nc2c3c(sc(=N)c2c1N)NC(=O)CC3c1c(F)cccc1Cl` (configuration not stated): the cell number change was found to be 10.8%. The AC50 under setting [2] was 5.8 µM [falling, single point]. Further, under setting [1], the AC50 was 6.51 µM [falling, single point].
For `CCCCn1nc(C(=O)NC2=NCCS2)c2ccccc2c1=O`, the cell number change was found to be 27.4%. Also, the AC50 under setting [1] was 0.82 µM [rising, full curve, poor fit].
For `O=C(NC1CCSC1=O)c1cccc(C(=O)NC2CCSC2=O)c1` (configuration not stated), the cell number change was found to be 0.527%. For the same compound, the AC50 under setting [1] was 23.1 µM [falling, single point].
Regarding `CCOC(=O)c1sc(NC(=O)/C=C/c2cnn(C)c2C)c(C(=O)OC(C)C)c1C`, the AC50 is 0.517 µM [rising, full curve] under setting [2] and 0.326 µM [rising, full curve] under setting [1].
Turning to `COc1ccccc1NC(=O)NNC(=O)c1ccc(-c2ccccc2)cc1`, the cell number change was determined as 17.6%. Moreover, the half-maximal activity concentration (AC50) under setting [1] was 15.8 µM [rising, partial curve].
With `O=C(N/N=C/c1ccc(F)cc1)c1ccc(Br)cc1`, the cell number change came to 12.9%. Further, the half-maximal activity concentration (AC50) under setting [1] is 29.1 µM [falling, single point].
Take `O=S(=O)(c1cccc(-c2nnco2)c1)N1CCOCC1`: the cell number change turned out to be 99.4%.
For `CCN1CCN(C(=O)c2cc(S(=O)(=O)N3CC(C)CC(C)C3)ccc2Cl)CC1` (configuration not stated), the cell number change came to 35%. The AC50 under setting [2] is 11.6 µM [rising, single point].
For the compound `COc1cc(C)nc(N(Cc2ccccc2)S(=O)(=O)c2ccccc2)n1`, the cell number change is 2.11%. The AC50 under setting [1] is 13 µM [rising, partial curve, poor fit].
For `COC1CCCN(C(=O)c2ccc3nc(Cc4cccc(Cl)c4)oc3c2)C1` (configuration not stated), the cell number change is -12.5%. Under setting [1], the AC50 is 32.6 µM [falling, single point].
As for `CCCN(CCC)S(=O)(=O)c1ccc(NS(=O)(=O)c2ccc(F)cc2)cc1`, the cell number change is -10.8%.
